{"sequences": {"note": "Chains of the proteins cited; added tags and fusions are not shown.", "UniProt P26040": "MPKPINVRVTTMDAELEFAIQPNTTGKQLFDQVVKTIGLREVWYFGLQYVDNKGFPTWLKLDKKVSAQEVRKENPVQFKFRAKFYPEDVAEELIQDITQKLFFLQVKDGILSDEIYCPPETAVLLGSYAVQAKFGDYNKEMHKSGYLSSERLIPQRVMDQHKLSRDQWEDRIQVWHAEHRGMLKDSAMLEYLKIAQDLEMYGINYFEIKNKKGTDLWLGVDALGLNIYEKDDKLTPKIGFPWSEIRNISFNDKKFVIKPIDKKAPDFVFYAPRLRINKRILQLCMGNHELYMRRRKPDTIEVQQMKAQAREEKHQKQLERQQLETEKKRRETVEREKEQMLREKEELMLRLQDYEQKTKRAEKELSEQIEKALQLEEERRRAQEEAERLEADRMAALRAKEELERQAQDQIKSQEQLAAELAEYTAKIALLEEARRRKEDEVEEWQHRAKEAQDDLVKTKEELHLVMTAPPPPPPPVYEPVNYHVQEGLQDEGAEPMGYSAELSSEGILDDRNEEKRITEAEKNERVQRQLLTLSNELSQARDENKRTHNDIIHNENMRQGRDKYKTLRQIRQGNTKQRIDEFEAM", "UniProt P55088": "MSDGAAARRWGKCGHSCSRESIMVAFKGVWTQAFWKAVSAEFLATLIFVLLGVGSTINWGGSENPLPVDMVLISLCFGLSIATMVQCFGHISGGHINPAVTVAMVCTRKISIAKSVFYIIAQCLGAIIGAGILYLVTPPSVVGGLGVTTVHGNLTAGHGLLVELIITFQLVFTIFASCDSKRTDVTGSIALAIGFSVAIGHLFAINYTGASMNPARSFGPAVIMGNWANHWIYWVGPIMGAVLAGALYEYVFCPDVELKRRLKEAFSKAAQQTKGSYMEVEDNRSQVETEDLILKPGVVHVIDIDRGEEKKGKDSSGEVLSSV", "UniProt P23242": "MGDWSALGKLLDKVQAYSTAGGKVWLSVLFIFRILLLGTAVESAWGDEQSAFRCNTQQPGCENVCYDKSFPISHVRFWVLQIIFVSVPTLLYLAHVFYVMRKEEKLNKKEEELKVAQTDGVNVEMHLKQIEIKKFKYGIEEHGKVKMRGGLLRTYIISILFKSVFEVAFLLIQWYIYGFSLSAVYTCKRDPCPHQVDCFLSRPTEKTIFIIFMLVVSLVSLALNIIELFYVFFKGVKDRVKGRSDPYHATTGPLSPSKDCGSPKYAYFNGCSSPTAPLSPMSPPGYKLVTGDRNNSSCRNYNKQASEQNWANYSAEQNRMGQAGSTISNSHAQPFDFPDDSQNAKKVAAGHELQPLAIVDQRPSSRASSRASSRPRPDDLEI"}, "source": "paper PMC10132990", "binders": {"B1": {"name": "SAPAP3 (endogenous) (protein, UniProt Q6PFD5 1-977)", "chain": "MRGYHGDRGSHPRPARFADQQHMDVGPAARAPYLLGSREAFSTEPRFCAPRAGLGHLSPEGPLSLSEGPSSVGPEGGPGGVGAGGGSSTFPRMYPGQGPFDTCEDCVGHPQGKGATRLPPTLLDQFEKQLPVQQDGFHTLPYQRGPAGPGPGPGSGAAPEARSESPSRIRHLVHSVQKLFAKSHSLEAPGKRDYNGPKADGRGSSGGDSYSGPGSGGTPTSHHHHHHHHHHHHQSRHGKRSKSKDRKGDGRHQTKATGWWSSDDNLDSDSGFLGGRPPGEPGGPFCLDAPDGSYRDLSFKGRSGGSEGRCLACTGMSMSLDGQSVKRSAWHTMMVSQGRDGYPGAGPGKGLLGPETKAKARTYHYLQVPQDDWGGYPTGGKDGEIPCRRMRSGSYIKAMGDEESGDSDGSPKTSPKALARRFASRRSSSVDTARINCCVPPRIHPRSSIPGYSRSLTTGQLSEEFNQQLEAVCGSVFGELESQAVDALDLPGCFRMRSHSYLRAIQAGCSQDDDCLPLLAAPASVSGRPGSSFNFRKAPPPIPPGSQAPPRISITAQSSTDSAHESFTAAEGPARRCSSADGLDGPTMGARTLELAPVPPRASPKPPTLIIKTIPGREELRSLARQRKWRPSIGVQVETISDSDTENRSRREFHSIGVQVEEDKRRARFKRSNSVTAGVQADLELEGLAGLATVATEDKALQFGRSFQRHASEPQPGPRAPTYSVFRTVHTQGQWAYREGYPLPYEPPATDGSPGPTPVPAPGPGSGRRDSWMERGSRSLPDSGRTSPCPRDGEWFIKMLRAEVEKLEHWCQQMEREAEDYELPEEILEKIRSAVGSTQLLLSQKVQQFFRLCQQSLDPTAFPVPTFQDLAGFWDLLQLSIEDVTLKFLELQQLKANSWKLLEPKEEKKVPPPIPKKPSRGRGVPVKERSLDSVDRQRQEARKRLLAAKRAASFRHSSATESADSIEIYIPEAQTRL"}}, "assay_in_all_cases": "proximity labelling; subcompartment BioID2 fusions (AQP4, EZR, GLT1, KIR4.1, CX43) in striatal astrocytes in vivo; biotin 24 mg/kg for 7 days; NeutrAvidin pull-down, LC-MS/MS; log2(FC) > 1 and FDR < 0.05 versus the same protein fused to GFP", "key": {"[1]": {"biological_target": "EZR–BioID2 (UniProt P26040)"}, "[2]": {"biological_target": "AQP4–BioID2 (UniProt P55088)"}, "[3]": {"biological_target": "CX43–BioID2 (UniProt P23242)"}, "[4]": {"biological_target": "T1, KIR4.1-BioID2 (UniProt Q9JM63)", "T1 sequence": "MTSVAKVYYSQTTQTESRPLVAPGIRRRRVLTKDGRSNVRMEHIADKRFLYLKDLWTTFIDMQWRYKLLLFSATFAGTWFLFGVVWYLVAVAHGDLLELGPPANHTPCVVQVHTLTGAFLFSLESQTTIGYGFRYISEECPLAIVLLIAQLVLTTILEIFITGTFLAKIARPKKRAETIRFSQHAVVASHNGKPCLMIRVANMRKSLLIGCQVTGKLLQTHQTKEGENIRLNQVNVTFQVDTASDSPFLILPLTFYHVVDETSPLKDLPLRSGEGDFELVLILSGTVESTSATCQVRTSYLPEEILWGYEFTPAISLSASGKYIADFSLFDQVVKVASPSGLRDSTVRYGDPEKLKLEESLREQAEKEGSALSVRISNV"}}, "note": "These are yes or no findings as the source states them, for the method shown. In cells and extracts the contact can be indirect. These calls come from enrichment with a bait or labelling near it, and not all partners need be listed. For some of these results: A no says only that the protein was not detected with the bait."}
{"binder": "B1", "values": [{"measurement": "binding", "setting": "[1]", "value": "binds"}, {"measurement": "binding", "setting": "[2]", "value": "no binding"}, {"measurement": "binding", "setting": "[3]", "value": "no binding"}, {"measurement": "binding", "setting": "[4]", "value": "no binding"}]}
